# Primary screen of a compound library

The chains behind the UniProt entries cited, without tags or fusion partners.
UniProt E9BF75, entry or part of it: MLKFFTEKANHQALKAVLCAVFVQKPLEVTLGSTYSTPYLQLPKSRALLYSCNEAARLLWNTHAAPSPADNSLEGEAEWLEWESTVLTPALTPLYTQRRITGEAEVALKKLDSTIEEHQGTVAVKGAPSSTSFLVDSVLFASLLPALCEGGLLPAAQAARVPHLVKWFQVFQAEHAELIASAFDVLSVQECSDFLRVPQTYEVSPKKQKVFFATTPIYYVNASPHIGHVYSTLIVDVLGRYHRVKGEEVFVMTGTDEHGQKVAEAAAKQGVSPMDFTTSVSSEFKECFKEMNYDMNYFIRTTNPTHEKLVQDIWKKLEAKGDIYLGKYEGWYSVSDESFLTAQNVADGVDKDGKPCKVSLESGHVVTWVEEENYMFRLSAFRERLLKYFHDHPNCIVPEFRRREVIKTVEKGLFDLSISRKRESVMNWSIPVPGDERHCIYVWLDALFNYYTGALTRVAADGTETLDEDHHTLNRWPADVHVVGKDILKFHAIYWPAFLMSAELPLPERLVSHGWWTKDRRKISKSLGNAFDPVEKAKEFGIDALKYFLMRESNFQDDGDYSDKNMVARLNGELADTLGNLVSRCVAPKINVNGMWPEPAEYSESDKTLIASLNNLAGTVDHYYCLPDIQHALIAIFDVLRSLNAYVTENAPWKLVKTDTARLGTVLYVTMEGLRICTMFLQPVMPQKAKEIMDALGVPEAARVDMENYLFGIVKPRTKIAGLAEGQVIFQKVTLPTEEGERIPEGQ

Data taken from ChEMBL document CHEMBL3988442, “University of Dundee, Small-Polar-MMV Screening Library” (2021).

All values are in %.
How 0% and 100% were set is not recorded. Most values in the screen are low, and negative values occur.
The compounds are a random part of those screened.

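Methionyl-tRNA synthetase (putative), Leishmania donovani (UniProt E9BF75). Primary screen of methionyl-tRNA synthetase; the read-out is not stated. The test concentration is not given. The values are filed as inhibition. Of about 68,000 compounds tested this way, about 24 (0.035%) reached 50% or more in at least one test.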

| Compound | inhibition |
|---|---|
| `Cc1cc(C(=O)N2CC[C@@H]3CN(CCC(C)C)S(=O)(=O)[C@@H]3CC2)no1` | 12.89% |
| `CC(C)(C)C(=O)Nc1cnn(-c2ccccc2S(C)(=O)=O)c1` | 21.58% |
| `CN1CCC(N(C)CCC(=O)N2CCN(Cc3cccc(F)c3)CC2)C1` (centres unmarked) | 18.12% |
| `Cc1cc2nccc(C3CCN(C(=O)c4ccccc4F)CC3)n2n1` | 12.23% |
| `Cc1nc(C)c(CN2CCOC(CN(C)c3cccnn3)C2)s1` (centres unmarked) | -1.031% |
| `Cc1cccc(CCC(=O)Nc2cccnc2N2CCC(O)CC2)c1` | 2.174% |
| `CCS(=O)(=O)N1CCN(CCn2cccn2)c2nc(C)ccc2C1` | 17.77% |
| `CN1CC(C(=O)NCc2ccc(Br)cc2F)CC1=O` (centres unmarked) | 17.34% |
| `c1cc([C@H]2C[C@@H]3CCN(Cc4nccs4)C[C@H]3O2)ncn1` | 8.904% |
| `CCn1cnc(NC(=O)N2CCCC(c3ccccc3)CC2)n1` (centres unmarked) | 4.178% |
| `CCc1nc2c(NCC3COc4cc(OC)ccc4C3)ncnc2o1` (centres unmarked) | 11.73% |
| `CCC(C)NC(=O)NCCCn1nc2ccccn2c1=O` (centres unmarked) | 13.07% |
| `O=C(N1CCCC1)C1(Cc2ccc(-c3cccs3)cc2)CCNC1` (centres unmarked) | 20.19% |
| `CCN(C(=O)CS(=O)(=O)Cc1cc(Cl)c2c(c1)OCCCO2)C1CC1` | 6.103% |
| `O=S(=O)(Nc1ccc(N2CCOCC2)cn1)c1cccc(F)c1` | 4.178% |
| `CCOCC(=O)N1CCCn2c(CN3CCCCC3)nnc2C1` | 15.34% |
| `Cc1nnsc1C(=O)N1CCCCC1c1cc2nc(C)c(C)c(O)n2n1` (centres unmarked) | 17.72% |
| `Cn1ccnc1CN1C[C@@H]2[C@@H](C1)OCC(=O)N2CC1CCCC1` | 8.934% |
| `COCC(=O)N1CCC(c2nc3ccc(N4CCCC4)cn3n2)CC1` | 2.5% |
| `CC(C(=O)NC1CC1)S(=O)(=O)Cc1csc(-c2cccs2)n1` (centres unmarked) | 9.581% |
| `CN(CCOc1ccc(Cl)cc1)Cc1ccc(S(=O)(=O)N(C)C)o1` | 13.51% |
| `CN(C)S(=O)(=O)c1ccc(-c2nc(C#N)c(NC3CCCCC3)o2)o1` | 12.2% |
| `CCOc1cccc(CNc2cnn(CC(C)C)c2CC)c1` | 4.891% |
| `O=S(=O)(c1cccnc1)N1CCN(Cc2nc(-c3cccs3)cs2)CC1` | 0.8621% |
| `O=C(CCO)N1CC2(CCN(c3ccccc3)C2)C1` | 5.764% |
| `COc1ccc2c(ccn2CC(=O)N2CCCC2Cn2cccn2)c1` (centres unmarked) | 15.22% |
| `CN1CC2(CCN(Cc3cccc(C#N)c3)CC2)CC1=O` | 12.85% |
| `CCn1cnnc1C1CCN(C(=O)c2cccc3c2ccn3C)CC1` | 16.6% |
| `CC(C)c1ocnc1C(=O)NC(c1nnc2n1CCNCC2)C(C)C` (centres unmarked) | 11.02% |
| `COc1cccc2c1N(S(=O)(=O)c1cc(C(=O)O)cs1)CCC2` | 6.767% |
| `Oc1nc(-c2cnccn2)nc2c1CCN(Cc1ccccn1)C2` | 13.54% |
| `CCC(=O)Nc1ccc2c(c1)CN(C(=O)c1ccco1)CC2` | 10.78% |
| `Cn1cc(C(=O)N2CCCC2c2[nH]ncc2C(N)=O)cn1` (centres unmarked) | 11.58% |
| `COc1ccc(CNC(C)c2ccc3[nH]c(=O)[nH]c3c2)cc1` (centres unmarked) | 10.46% |
| `CCc1cc(N(C)Cc2ccncn2)n2nc(C)c(C)c2n1` | 11.25% |
| `COC1CCN(C(=O)Cn2ccc3ccccc32)CC1` | 2.158% |
| `CCC(CO)N(Cc1ccsc1)Cc1ccccc1C#N` (centres unmarked) | 14.72% |
| `CC1(C)OCC2(CO1)CN(S(=O)(=O)c1ccc(Br)s1)C2` | 5.036% |
| `Cc1ccc(NC(=O)NCCn2cnc(C)c(C)c2=O)cc1F` | 7.627% |
| `CC(Cn1cccn1)NC(=O)Nc1ccc(N2CCCCC2)nc1` (centres unmarked) | 13.11% |
| `Cc1cc(C(C)NC(=O)CCN2C(=O)c3ccccc3C2=O)c(C)o1` (centres unmarked) | 9.028% |
| `CN(C)CCN1C[C@@H]2CN(S(=O)(=O)c3ccccc3)C[C@@H]2C1=O` | 17.05% |
| `COc1ccc(N2CCN(C(=O)Cn3nc(C)c(C)c3C)C(C)C2)cc1` (centres unmarked) | 7.754% |
| `O=C1CCC(=O)N1Cc1ccc(C(=O)N2CCCC2c2cccs2)cc1` (centres unmarked) | -20.1% |
| `COc1ccc(CCN2CCCC(n3cncn3)C2)cc1` (centres unmarked) | 13.94% |

The first 5 entries again:

Compound,inhibition
Cc1cc(C(=O)N2CC[C@@H]3CN(CCC(C)C)S(=O)(=O)[C@@H]3CC2)no1,12.89%
CC(C)(C)C(=O)Nc1cnn(-c2ccccc2S(C)(=O)=O)c1,21.58%
CN1CCC(N(C)CCC(=O)N2CCN(Cc3cccc(F)c3)CC2)C1 (centres unmarked),18.12%
Cc1cc2nccc(C3CCN(C(=O)c4ccccc4F)CC3)n2n1,12.23%
Cc1nc(C)c(CN2CCOC(CN(C)c3cccnn3)C2)s1 (centres unmarked),-1.031%